In PMC7862700:
Only a part is listed here, and it is no random draw. At the low end of the ranking, values are background and their order means little.

Protein sequences, listed by entry. Tags and fused reporters are not part of them. Lines headed by an entry give the natural chain unless they say otherwise; changes in a name come on top.
UniProt Q01892: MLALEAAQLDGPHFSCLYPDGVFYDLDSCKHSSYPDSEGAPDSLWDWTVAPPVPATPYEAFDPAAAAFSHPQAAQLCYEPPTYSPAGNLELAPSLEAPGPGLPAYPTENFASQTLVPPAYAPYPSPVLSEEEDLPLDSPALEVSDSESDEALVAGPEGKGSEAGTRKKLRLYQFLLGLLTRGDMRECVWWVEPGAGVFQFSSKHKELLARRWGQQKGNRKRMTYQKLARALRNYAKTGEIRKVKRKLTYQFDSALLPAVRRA
UniProt P41161: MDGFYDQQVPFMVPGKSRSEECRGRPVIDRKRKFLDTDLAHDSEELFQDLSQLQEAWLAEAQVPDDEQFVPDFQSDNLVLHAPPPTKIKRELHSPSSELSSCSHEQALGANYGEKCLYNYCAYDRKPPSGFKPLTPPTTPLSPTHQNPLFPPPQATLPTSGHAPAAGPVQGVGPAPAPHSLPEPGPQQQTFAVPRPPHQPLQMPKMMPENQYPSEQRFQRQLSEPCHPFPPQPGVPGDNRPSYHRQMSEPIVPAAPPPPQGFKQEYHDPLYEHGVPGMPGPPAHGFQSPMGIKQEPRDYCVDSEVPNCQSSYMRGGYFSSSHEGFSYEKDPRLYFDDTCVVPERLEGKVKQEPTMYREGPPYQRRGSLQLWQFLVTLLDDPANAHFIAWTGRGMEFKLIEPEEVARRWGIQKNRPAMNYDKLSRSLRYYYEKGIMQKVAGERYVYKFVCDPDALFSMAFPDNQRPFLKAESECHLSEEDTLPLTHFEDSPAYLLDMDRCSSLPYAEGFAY
UniProt Q99607: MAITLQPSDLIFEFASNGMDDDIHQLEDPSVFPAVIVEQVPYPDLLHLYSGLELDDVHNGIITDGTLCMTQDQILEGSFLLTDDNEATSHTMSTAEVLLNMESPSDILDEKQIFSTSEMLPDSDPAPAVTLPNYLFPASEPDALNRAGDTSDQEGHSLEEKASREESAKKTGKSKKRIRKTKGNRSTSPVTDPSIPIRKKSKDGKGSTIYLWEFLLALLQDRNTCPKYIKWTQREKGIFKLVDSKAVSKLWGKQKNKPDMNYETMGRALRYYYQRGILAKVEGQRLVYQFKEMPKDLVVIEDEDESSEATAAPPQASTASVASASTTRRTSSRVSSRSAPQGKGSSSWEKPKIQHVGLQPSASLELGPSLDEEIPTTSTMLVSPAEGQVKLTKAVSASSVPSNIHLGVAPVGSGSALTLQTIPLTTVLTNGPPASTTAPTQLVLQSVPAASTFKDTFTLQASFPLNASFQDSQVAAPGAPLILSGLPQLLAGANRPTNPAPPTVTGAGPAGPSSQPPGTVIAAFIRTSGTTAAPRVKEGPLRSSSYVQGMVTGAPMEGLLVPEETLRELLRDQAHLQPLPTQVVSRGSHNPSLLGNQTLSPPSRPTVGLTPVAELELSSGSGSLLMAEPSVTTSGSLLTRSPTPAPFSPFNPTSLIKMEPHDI

Legend:
Test in all cases: DAPPL (digital affinity profiling via proximity ligation, sequencing)
Settings in all cases: 10 mM Tris-HCl pH 7.5, 50 mM NaCl, 1 mM DTT, 4% glycerol, room temperature, 30 min; GST-TFs on glutathione beads, 16-mer random dsDNA library, 0.1% …; high values mean tight binding; double strand, one strand shown; scale: fold enrichment (6-mer frequency, TF over GST control)
FLI1 = molecular target: T1, FLI1 (UniProt Q01543)
T1 sequence: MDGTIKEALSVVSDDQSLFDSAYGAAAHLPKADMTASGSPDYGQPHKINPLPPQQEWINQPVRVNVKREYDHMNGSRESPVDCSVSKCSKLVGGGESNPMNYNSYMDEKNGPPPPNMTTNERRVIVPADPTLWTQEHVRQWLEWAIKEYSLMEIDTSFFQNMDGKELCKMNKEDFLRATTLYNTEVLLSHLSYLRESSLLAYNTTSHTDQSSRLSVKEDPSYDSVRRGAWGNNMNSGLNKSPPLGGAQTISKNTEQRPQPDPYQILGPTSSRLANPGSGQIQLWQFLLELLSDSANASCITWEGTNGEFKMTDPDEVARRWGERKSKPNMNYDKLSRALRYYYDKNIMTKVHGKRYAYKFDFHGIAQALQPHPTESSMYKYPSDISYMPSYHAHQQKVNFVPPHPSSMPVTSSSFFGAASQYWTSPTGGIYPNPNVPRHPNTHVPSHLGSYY

EHF = molecular target: T2, EHF (UniProt Q9NZC4)
T2 sequence: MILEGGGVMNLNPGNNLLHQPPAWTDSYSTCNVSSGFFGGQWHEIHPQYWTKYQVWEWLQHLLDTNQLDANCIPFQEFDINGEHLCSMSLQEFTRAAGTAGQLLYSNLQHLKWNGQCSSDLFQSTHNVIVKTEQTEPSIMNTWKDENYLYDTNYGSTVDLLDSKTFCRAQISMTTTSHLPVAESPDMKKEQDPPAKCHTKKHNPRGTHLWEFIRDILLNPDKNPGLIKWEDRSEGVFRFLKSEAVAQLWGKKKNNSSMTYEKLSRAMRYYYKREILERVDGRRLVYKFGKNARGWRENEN

SPIB = SPIB (UniProt Q01892)
ETV5 = ETV5 (UniProt P41161)
ELF4 = ELF4 (UniProt Q99607)
ETV2 = molecular target: T3, ETV2 (UniProt O00321)
T3 sequence: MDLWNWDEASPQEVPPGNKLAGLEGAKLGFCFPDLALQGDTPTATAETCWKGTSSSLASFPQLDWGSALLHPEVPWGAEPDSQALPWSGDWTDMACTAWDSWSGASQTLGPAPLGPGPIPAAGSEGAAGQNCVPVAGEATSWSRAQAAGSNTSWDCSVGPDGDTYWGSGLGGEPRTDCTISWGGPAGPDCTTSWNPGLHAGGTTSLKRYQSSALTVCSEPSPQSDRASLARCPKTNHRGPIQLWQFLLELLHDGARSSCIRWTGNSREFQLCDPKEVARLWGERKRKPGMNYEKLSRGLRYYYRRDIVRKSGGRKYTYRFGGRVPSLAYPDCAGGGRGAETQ

ETV3L = molecular target: T4, ETV3L (UniProt Q6ZN32)
T4 sequence: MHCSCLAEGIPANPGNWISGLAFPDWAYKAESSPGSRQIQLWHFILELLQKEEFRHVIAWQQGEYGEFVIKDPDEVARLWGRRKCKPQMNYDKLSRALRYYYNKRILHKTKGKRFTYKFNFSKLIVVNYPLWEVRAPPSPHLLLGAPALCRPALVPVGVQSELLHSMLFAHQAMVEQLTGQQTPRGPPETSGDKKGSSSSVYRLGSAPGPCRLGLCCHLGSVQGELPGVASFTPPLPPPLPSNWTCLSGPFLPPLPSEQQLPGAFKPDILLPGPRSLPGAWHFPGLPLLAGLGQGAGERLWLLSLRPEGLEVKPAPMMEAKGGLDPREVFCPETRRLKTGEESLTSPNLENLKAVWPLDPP

Sequence	binding signal (FLI1)	binding signal (EHF)	binding signal (SPIB)	binding signal (ETV5)	binding signal (ELF4)	binding signal (ETV2)	binding signal (ETV3L)
CGGGTA	0.857	0.796	0.778	0.837	0.769	0.815	0.801
CAGTCC	0.655	0.612	0.647	0.626	0.666	0.618	0.657
AGGCTG	0.697	0.657	0.588	0.646	0.665	0.732	0.71
GTTAGA	0.786	0.777	0.736	0.743	0.77	0.83	0.799
ACGAGG	0.783	0.727	0.835	0.787	0.811	0.709	0.67
CGGGTG	0.646	0.676	0.606	0.737	0.705	0.606	0.633
GTCGCA	0.827	0.693	0.755	0.708	0.713	0.773	0.685
GCGGGT	0.566	0.633	0.631	0.636	0.629	0.668	0.603
TGTGTA	0.862	0.828	0.842	0.912	0.835	0.765	0.853
CAGGTT	0.661	0.656	0.666	0.665	0.683	0.738	0.66
TGCCGT	0.869	0.898	0.848	0.837	0.886	0.895	0.824
CGCATG	0.653	0.677	0.631	0.62	0.677	0.677	0.656
GGCGAA	0.662	0.661	0.737	0.727	0.736	0.638	0.697
AGACCG	0.472	0.455	0.443	0.494	0.466	0.504	0.467
GGGGGT	0.51	0.518	0.543	0.475	0.527	0.591	0.603
GCAAGT	0.843	0.817	0.819	0.806	0.824	0.735	0.852
TCGTGT	0.809	0.722	0.776	0.753	0.708	0.696	0.878
AGACAG	0.508	0.509	0.535	0.536	0.524	0.493	0.518
ACGCAT	0.848	0.84	0.785	0.796	0.794	0.835	0.824
CGAGCC	0.862	0.907	0.872	0.844	0.805	0.75	0.775

Sequence	binding signal (FLI1)	binding signal (EHF)	binding signal (SPIB)	binding signal (ETV5)	binding signal (ELF4)	binding signal (ETV2)	binding signal (ETV3L)
GAGAGG	0.495	0.527	0.524	0.535	0.503	0.447	0.478
GTCAGG	0.499	0.501	0.555	0.502	0.525	0.507	0.565
CTGAGT	0.65	0.632	0.612	0.63	0.627	0.594	0.623
GTCGCC	0.841	0.858	0.824	0.859	0.851	0.873	0.868
TGGAGT	0.48	0.571	0.535	0.543	0.517	0.437	0.581
GCGTAC	0.871	0.862	0.958	0.863	0.925	0.884	0.984
ACAGTG	0.542	0.5	0.487	0.509	0.505	0.508	0.519
TGCGTG	0.655	0.608	0.575	0.643	0.651	0.737	0.639
GAGGAA	0.714	0.889	0.796	0.819	0.716	0.771	0.742
TCGGAA	0.541	0.55	0.561	0.596	0.531	0.468	0.561
TGGACG	0.817	0.83	0.838	0.827	0.808	0.824	0.819
GCGTGC	0.802	0.739	0.821	0.809	0.743	0.837	0.728
GCAGTG	0.56	0.504	0.571	0.566	0.613	0.53	0.563
GGGTGA	0.622	0.588	0.581	0.653	0.633	0.635	0.614
CAAGAC	0.839	0.861	0.813	0.865	0.892	0.899	0.864
TGTGTC	0.733	0.743	0.818	0.768	0.698	0.879	0.731
GGCGAC	0.803	0.801	0.82	0.772	0.86	0.828	0.899
GAGAAC	0.394	0.429	0.426	0.391	0.42	0.431	0.43
GGTCAA	0.87	0.905	0.922	0.871	0.91	0.877	0.972
CCAGCG	0.66	0.622	0.652	0.58	0.658	0.626	0.67

Single entries from the list:
In binding signal (ETV3L), GCAGTG is entered as 0.563
In binding signal (ETV3L), GAGGAA is entered as 0.742

Later entries

Sequence	binding signal (FLI1)	binding signal (EHF)	binding signal (SPIB)	binding signal (ETV5)	binding signal (ELF4)	binding signal (ETV2)	binding signal (ETV3L)
TCAGGG	0.886	0.806	0.891	0.815	0.892	0.799	0.833
GTCGGG	0.216	0.208	0.223	0.219	0.198	0.218	0.213
GGAGGT	0.357	0.337	0.3	0.355	0.334	0.394	0.379
AGGGCA	0.783	0.848	0.807	0.827	0.784	0.898	0.832
CCTGTC	0.995	0.933	0.898	0.975	0.904	0.767	0.857
GGGAGG	0.323	0.312	0.298	0.306	0.314	0.303	0.332
GGTAGT	0.781	0.711	0.778	0.803	0.765	0.801	0.732
GTCAGT	0.638	0.582	0.582	0.598	0.612	0.584	0.595
GTCGTT	0.685	0.738	0.702	0.695	0.682	0.772	0.747
GGATCG	0.647	0.611	0.542	0.614	0.639	0.506	0.627
CAGAGC	0.887	0.824	0.837	0.854	0.896	0.866	0.814
GAGTCG	0.229	0.201	0.222	0.208	0.233	0.219	0.223
CGGCAG	0.847	0.848	0.788	0.828	0.814	0.94	0.753
GACACG	0.624	0.694	0.711	0.704	0.747	0.682	0.661
TAGGTG	0.928	0.862	0.835	0.933	0.9	0.773	0.832
ACGCAA	0.862	0.896	0.915	0.92	0.925	0.871	0.844
GGGACT	0.664	0.677	0.649	0.654	0.692	0.738	0.632
GACACA	0.963	0.907	0.873	0.872	0.902	0.866	0.956
GGTGTC	0.757	0.711	0.83	0.819	0.847	0.834	0.802
CAGGCC	0.744	0.751	0.656	0.706	0.763	0.748	0.717
